{"sequences": {"note": "Protein sequences, listed by entry. Tags and fused reporters are not part of them. Residues count along the entry.", "UniProt P00582, 324-928 D355A/E357A": "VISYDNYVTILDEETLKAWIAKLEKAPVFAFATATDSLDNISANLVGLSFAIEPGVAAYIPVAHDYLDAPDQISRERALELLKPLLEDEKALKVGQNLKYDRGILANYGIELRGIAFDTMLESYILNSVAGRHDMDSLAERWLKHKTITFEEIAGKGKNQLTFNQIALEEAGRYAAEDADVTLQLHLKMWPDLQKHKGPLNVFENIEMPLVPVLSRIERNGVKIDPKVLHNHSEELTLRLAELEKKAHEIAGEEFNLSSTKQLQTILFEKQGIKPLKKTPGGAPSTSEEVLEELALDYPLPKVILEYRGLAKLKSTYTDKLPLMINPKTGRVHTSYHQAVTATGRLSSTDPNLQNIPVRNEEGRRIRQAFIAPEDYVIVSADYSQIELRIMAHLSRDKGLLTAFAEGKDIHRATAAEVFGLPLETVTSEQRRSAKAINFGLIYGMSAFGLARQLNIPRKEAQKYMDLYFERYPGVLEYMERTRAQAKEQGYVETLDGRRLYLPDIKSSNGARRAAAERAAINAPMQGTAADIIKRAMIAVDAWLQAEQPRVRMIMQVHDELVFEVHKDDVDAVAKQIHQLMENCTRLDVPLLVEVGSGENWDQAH"}, "source": "patent US20100298551A1", "about": "“Methods Of Producing And Sequencing Modified Polynucleotides” (priority 2005, published 2010)", "biological_target": "T1, exo− E. coli Polymerase I, Klenow fragment (Escherichia coli, UniProt P00582, D355A/E357A)", "T1 construct": "12.5 U exo^− E. coli Polymerase I, Klenow fragment (Epicentre); purchased Epicentre", "experiment": "Primer extension: incorporation of 3′ thiol-nucleoside triphosphate into a growing DNA strand by DNA polymerase", "type": "biochemical", "conditions": "low concentration 5.0 μm (FIG. 3D)", "procedure": "DNA synthesis was performed on a single-stranded DNA template (5′-TTTTTTCTAAGGTAGCGACTGTCCTATACAGACTGACAAAAAAAGAGAATGAGGAACCCGGGGCAG-3′) (SEQ ID NO:1), which was labeled at its 5′ end with a dual biotin tag and was attached to a magnetic bead (FIG. 3B). Synthesis was primed using a primer (5′-CTGCCCCGGGTTCCTCATTCTCT-3′) (SEQ ID NO:2), which was complementary to a portion of the DNA template. The primer was labeled with Cy5 at its 5′ end. The DNA template contained 5 adenine nucleotides immediately downstream of the primer sequence. […]", "note": "At least one compound was matched to its structure with a doubt left.", "data": [{"smiles": "CSS[C@H]1C[C@H](n2cc(C)c(=O)[nH]c2=O)O[C@@H]1CO", "note": "[3′-deoxy-dithiomethyl thymidine]", "values": [{"measurement": "modified thymidine residues in the majority of reaction products", "result": "0 or 1"}]}]}
